Experimental data published in PMC7472419.
These are yes or no findings as the source states them, for the method shown. For some assays here: Binding seen in cells or lysates may run through a third protein. Some entries that bind do so weakly or less than the wild type. Where a sequence is shown, tags or fusion partners need not be part of it.

What was measured:
[1] = biological target: Soybean mosaic virus helper component-proteinase (Hc-Pro), full length, yeast two-hybrid fusion (Soybean mosaic virus (N1 strain)) (UniProt P21231); test: two-hybrid
[2] = biological target: Soybean mosaic virus Hc-Pro, full length, split-YFP fusion for BiFC (Soybean mosaic virus (N1 strain)) (UniProt P21231); test: split reporter

Binder | binding [1] | binding [2]
Soybean mosaic virus helper component-proteinase (Hc-Pro), full length, yeast two-hybrid fusion (protein, UniProt P21231) SQNPEAQFFRGWKKVFDKMPPHVENHECTTDFTNEQCGELAAAISQSIFPVKKLSCKQCRQHIKHLSWEEYKQFLLAHMGCHGPEWETFQEIDGMRYVKRVIETSTAENASLQTSLEIVRLTQNYKSTHMLQIQDINKALMKGPSVTQSELEQASKQLLAMTQWWKNHMTLTDEDALKVFRNKRSSKALLNPSLLCDNQLDKNGNFVWGERGRHSKRFFANYFEEVVPSEGYSKYVIRKNPNGQRELAIGSLIVPLDFERARMALQGKSVTREPITMSCISRQDGNFVYPCCCVTHDDGKAFYSELRSPTKRHLVIGTSGDPKYIDLPATDADRMYIAKEGFCYLNIFLAMLVNVNEDEAKDFTKMVRDVIVPRLGKWPTMLDVATAAYMLTVFHPETRNAELPRILVDHACQTMHVIDSFGSLTVGYHVLKAGTVNQLIQFASNDLQSEMKFYRVG | binds | –
Soybean mosaic virus Hc-Pro, full length, split-YFP fusion for BiFC (protein, UniProt P21231) SQNPEAQFFRGWKKVFDKMPPHVENHECTTDFTNEQCGELAAAISQSIFPVKKLSCKQCRQHIKHLSWEEYKQFLLAHMGCHGPEWETFQEIDGMRYVKRVIETSTAENASLQTSLEIVRLTQNYKSTHMLQIQDINKALMKGPSVTQSELEQASKQLLAMTQWWKNHMTLTDEDALKVFRNKRSSKALLNPSLLCDNQLDKNGNFVWGERGRHSKRFFANYFEEVVPSEGYSKYVIRKNPNGQRELAIGSLIVPLDFERARMALQGKSVTREPITMSCISRQDGNFVYPCCCVTHDDGKAFYSELRSPTKRHLVIGTSGDPKYIDLPATDADRMYIAKEGFCYLNIFLAMLVNVNEDEAKDFTKMVRDVIVPRLGKWPTMLDVATAAYMLTVFHPETRNAELPRILVDHACQTMHVIDSFGSLTVGYHVLKAGTVNQLIQFASNDLQSEMKFYRVG | – | binds
